PubChem BioAssay AID1159578 | Peter MacCallum Cancer Centre – 2015
Shown is an unselected part of about 18,000 reagents tested. Of all reagents, about 1,030 (5.7%) got an active call. 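Inactive calls also include pools with fewer than 3300 nuclei, whose migration was not assessed.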 Raw values vary from plate to plate and are shown uncorrected. Entries without a mark were called inactive. Not all columns of the deposit are shown.

- Assay: 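siRNA pools altering how lymphatic endothelial cells close a scratch wound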 (primary screen)
- Cells: human lymphatic endothelial cells
- Reagent: siRNA pool against human genes, 40 nM
- Timing: 48 h after transfection
- Measurement: 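High-content imaging of dye-stained cells in a scratch assay measures filled wound area and nuclei per well; duplicate means given as ratio to mock and robust z-score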
- Scale: migration robust z-score: higher = faster migration into the scratch; nuclei per well: higher = more cells in the well
- Rule for the call: 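Pools averaging fewer than 3300 nuclei are never called; remaining pools count as changed when migration robust z lies outside -2 to 2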
- Meaning of the calls: active = migration changed; inactive = no migration change, or too few cells

For PSMD5 (GeneID 5711), what was measured?
migration robust z-score: 0.55; nuclei per well, duplicate mean: 6886

With C10orf55 (GeneID 414236), how do the results read?
migration robust z-score: 0.38; nuclei per well, duplicate mean: 6371

For CPM (GeneID 1368), what does the deposit list?
migration robust z-score: -0.1; nuclei per well, duplicate mean: 5256

For OTUB1 (GeneID 55611), what was measured?
migration robust z-score: -1.61; nuclei per well, duplicate mean: 4740

With ZNF433 (GeneID 163059), what was measured?
migration robust z-score: 0.43; nuclei per well, duplicate mean: 5800

What did the screen give for PARP3 (GeneID 10039)?
migration robust z-score: -0.39; nuclei per well, duplicate mean: 6772

With ABTB3 (GeneID 121551), how do the results read?
migration robust z-score: -0.82; nuclei per well, duplicate mean: 5802

How did the screen score EXOC3L2 (GeneID 90332)?
migration robust z-score: -2.26 (active); nuclei per well, duplicate mean: 5344

With SNX24 (GeneID 28966), what was measured?
migration robust z-score: 1.56; nuclei per well, duplicate mean: 6656

Which result is listed for LZTS2 (GeneID 84445)?
migration robust z-score: 1.14; nuclei per well, duplicate mean: 3262

What did the screen give for PALS1 (GeneID 64398)?
migration robust z-score: -0.4; nuclei per well, duplicate mean: 5643

What is on record for BTN3A1 (GeneID 11119)?
migration robust z-score: 0.16; nuclei per well, duplicate mean: 5100

For PTCHD3 (GeneID 374308), what was measured?
migration robust z-score: -0.19; nuclei per well, duplicate mean: 5990

How did the screen score GRAMD1B (GeneID 57476)?
migration robust z-score: -0.87; nuclei per well, duplicate mean: 3480

How did the screen score PLEKHG6 (GeneID 55200)?
migration robust z-score: 1.06; nuclei per well, duplicate mean: 6246

With PDCD4 (GeneID 27250), what does the deposit list?
migration robust z-score: -0.86; nuclei per well, duplicate mean: 4323

With NFRKB (GeneID 4798), how do the results read?
migration robust z-score: 0.49; nuclei per well, duplicate mean: 5317

How did the screen score LUC7L3 (GeneID 51747)?
migration robust z-score: -1.36; nuclei per well, duplicate mean: 5916

Which result is listed for PAOX (GeneID 196743)?
migration robust z-score: 1.19; nuclei per well, duplicate mean: 5804

What did the screen give for CEMP1 (GeneID 752014)?
migration robust z-score: 1.04; nuclei per well, duplicate mean: 6272

Which result is listed for PSMB5 (GeneID 5693)?
migration robust z-score: 0.02; nuclei per well, duplicate mean: 5762
